# PubChem BioAssay AID1053208, Peter MacCallum Cancer Centre – 2014
# Test: 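Genes whose silencing cuts survival of bone tumour cells only with doxorubicin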 (primary screen)
# System: mouse osteosarcoma cells, early-passage culture from an engineered mouse model of fibroblastic bone tumour
# Knock-down reagent: siRNA pool against mouse genes, 40 nM
# Time to read-out: about 120 h (48 h before drug, then 72 h with drug)
# Treatment: doxorubicin 100 nM for 72 h, roughly 30-40% inhibitory dose
# Read-out: 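Viability read as ATP luminescence after 72 h of 100 nM doxorubicin or none, duplicate wells averaged, scaled to non-targeting siRNA, then expressed as robust z-scores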
# Direction: viability z-score with doxorubicin: higher = more viable cells under doxorubicin; viability z-score without drug: higher = more viable cells with knock-down alone
# Call rule: 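Called active if knock-down leaves viability unchanged without drug (z within -2 to 2) but lowers it with doxorubicin (z at or under -2)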
# In all, the deposit lists about 17,000 reagents; this is a part drawn at random. Of all reagents, 788 (4.7%) got an active call. 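Calls rest on z-score classes alone; an extra cut-off of viability at most 70% of control was not applied to them.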 Unmarked entries are inactive. Further read-outs or replicates are left out here. Reagent sequences are not shown.
gene,PubChem SID,combined z-score class,viability z-score with doxorubicin,viability z-score without drug
Trat1,SID152307644,no change with or without drug,-1.12,-1.18
Srd5a2,SID152273388,no change with or without drug,0.22,-0.67
Rpl37,SID152265850,low cell count with and without drug,-3.82,-4.89
Il4ra,SID152287748,no change with or without drug,1.46,-0.67
Anapc1,SID152286750,no change with or without drug,-1.57,-1.85
Sdhd,SID152303521,no change with or without drug,-0.45,-1.35
Nlrp4f,SID152285920,no change with or without drug,-0.11,0.17
Dolk,SID152314392,no change with or without drug,0.79,1.01
Or5b98,SID152295902,no change with or without drug,-0.67,-0.84
Eef2k,SID152286269,no change with or without drug,-0.22,-1.52
Chmp4c,SID152300161,no change with or without drug,0.34,1.18
Dlgap3,SID152292664,no change with or without drug,-0.45,-0.51
Abhd14a,SID152329320,no change with or without drug,0.22,1.85
Anxa7,SID152264145,no change with or without drug,-1.8,-0.51
Frem2,SID152259475,no change with or without drug,1.69,0.51
4933427E11Rik,SID152320290,no change with or without drug,-0.45,0.67
Ppic,SID152288118,no change with or without drug,0.56,-1.18
Zkscan14,SID152279885,high cell count without drug only,1.69,2.02
Wdr36,SID152300128,no change with or without drug,0.11,0.51
Nt5dc1,SID152263490,no change with or without drug,0.22,0.51
Rnf19a,SID152269727,no change with or without drug,0.22,-0.51
Il2,SID152276298,no change with or without drug,0.79,0.34
Gzmm,SID152316999,no change with or without drug,-0.67,-0.17
Snx15,SID152340185,no change with or without drug,0.56,-0.84
Myg1,SID152261271,no change with or without drug,0.67,1.69
Clic1,SID152309374,no change with or without drug,-1.8,-0.51
Mob3c,SID152280894,low cell count with doxorubicin only (active),-2.7,-1.69
Batf,SID152315701,no change with or without drug,0,0.67
Efcab14,SID152313567,no change with or without drug,0,0.84
Cd209e,SID152278564,no change with or without drug,0,1.85
Mrgprf,SID152264092,no change with or without drug,0.34,-0.17
Kif11,SID152307739,no change with or without drug,-1.35,-1.85
Dcxr,SID152315940,no change with or without drug,1.35,-0.84
Ro60,SID152287049,no change with or without drug,-0.22,-0.84
Tdpoz4,SID152340893,high cell count without drug only,0.11,2.19
Or2m13,SID152341133,no change with or without drug,-1.57,-1.52
Spred2,SID152263605,no change with or without drug,1.01,-0.34
Per1,SID152264842,no change with or without drug,-0.22,-0.17
Zfp711,SID152334587,no change with or without drug,-1.35,-1.85
Tnfsf11,SID152271881,no change with or without drug,-1.8,-0.17
Il13,SID152325187,no change with or without drug,1.57,0.84
Lsm3,SID152291112,no change with or without drug,-0.34,-1.35
Slc46a1,SID152271430,no change with or without drug,-0.79,-0.34
Pofut2,SID152269635,no change with or without drug,1.12,-0.84
Tas2r136,SID152277728,no change with or without drug,1.35,0.51
Mmp21,SID152265216,no change with or without drug,0.56,1.52
Bmal2,SID152338634,no change with or without drug,0.45,0.67
Tesk2,SID152333351,no change with or without drug,-0.67,-1.18
Strc,SID152272909,no change with or without drug,-0.67,-0.51
Vmn1r43,SID152311291,no change with or without drug,0.9,1.18

8 of these entries in another layout.
Rnf19a [SID152269727]
- combined z-score class: no change with or without drug
- viability z-score with doxorubicin: 0.22
- viability z-score without drug: -0.51

Il2 [SID152276298]
- combined z-score class: no change with or without drug
- viability z-score with doxorubicin: 0.79
- viability z-score without drug: 0.34

Gzmm [SID152316999]
- combined z-score class: no change with or without drug
- viability z-score with doxorubicin: -0.67
- viability z-score without drug: -0.17

Snx15 [SID152340185]
- combined z-score class: no change with or without drug
- viability z-score with doxorubicin: 0.56
- viability z-score without drug: -0.84

Myg1 [SID152261271]
- combined z-score class: no change with or without drug
- viability z-score with doxorubicin: 0.67
- viability z-score without drug: 1.69

Clic1 [SID152309374]
- combined z-score class: no change with or without drug
- viability z-score with doxorubicin: -1.8
- viability z-score without drug: -0.51

Mob3c [SID152280894]
- combined z-score class: low cell count with doxorubicin only (active)
- viability z-score with doxorubicin: -2.7
- viability z-score without drug: -1.69

Batf [SID152315701]
- combined z-score class: no change with or without drug
- viability z-score with doxorubicin: 0
- viability z-score without drug: 0.67
